The supplement of paper PMC9233669
Variants at the background level are over-represented here.

Legend:
biotinyl-Val-oxazolone = assay: self-aminoacylation, catalytic enhancement (BVO) (fold over background); higher = more active; k-Seq, kA / k0A0; sequences stand for … in GGGAAUGGAUCCACAUCUACGAAUUC…UUCACUGCAGACUUGACGAAGCUG
Summary of the method: (§1)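 Mutagenized RNA pools with a 21-nt variable region (0.43 μM) reacted with each biotinyl-aminoacyl-oxazolone at 2–1250 μM. Reactions ran in 50 μL HEPES/NaCl/KCl/MgCl2/CaCl2 buffer with 5% acetonitrile, pH 6.9–7.0, for 90 minutes at room temperature. Streptavidin-captured RNA was quantified by triplicate qPCR and Illumina sequencing, and per-sequence fraction reacted was fit to a pseudo-first-order model with 1000 bootstraps. Catalytic enhancement is median kA divided by the uncatalyzed rate, the low-activity peak of a bimodal Gaussian fit.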

biotinyl-Trp-oxazolone = assay: self-aminoacylation, catalytic enhancement (BWO) (fold over background); higher = more active; k-Seq, kA / k0A0; sequences stand for … in GGGAAUGGAUCCACAUCUACGAAUUC…UUCACUGCAGACUUGACGAAGCUG
Summary of the method: as §1

biotinyl-Ile-oxazolone = assay: self-aminoacylation, catalytic enhancement (BIO) (fold over background); higher = more active; k-Seq, kA / k0A0; sequences stand for … in GGGAAUGGAUCCACAUCUACGAAUUC…UUCACUGCAGACUUGACGAAGCUG
Summary of the method: as §1

biotinyl-Met-oxazolone = assay: self-aminoacylation, catalytic enhancement (BMO) (fold over background); higher = more active; k-Seq, kA / k0A0; sequences stand for … in GGGAAUGGAUCCACAUCUACGAAUUC…UUCACUGCAGACUUGACGAAGCUG
Summary of the method: as §1

biotinyl-Leu-oxazolone = assay: self-aminoacylation, catalytic enhancement (BLO) (fold over background); higher = more active; k-Seq, kA / k0A0; sequences stand for … in GGGAAUGGAUCCACAUCUACGAAUUC…UUCACUGCAGACUUGACGAAGCUG
Summary of the method: as §1

biotinyl-Phe-oxazolone = assay: self-aminoacylation, catalytic enhancement (BFO) (fold over background); higher = more active; k-Seq, kA / k0A0; sequences stand for … in GGGAAUGGAUCCACAUCUACGAAUUC…UUCACUGCAGACUUGACGAAGCUG
Summary of the method: as §1

| Sequence | self-aminoacylation (biotinyl-Val-oxazolone) | self-aminoacylation (biotinyl-Trp-oxazolone) | self-aminoacylation (biotinyl-Ile-oxazolone) | self-aminoacylation (biotinyl-Met-oxazolone) | self-aminoacylation (biotinyl-Leu-oxazolone) | self-aminoacylation (biotinyl-Phe-oxazolone) |
| --- | --- | --- | --- | --- | --- | --- |
| CCACACUUCAAGCAAUAGGGC [Fam1B.1 aminoacylation ribozyme variant] | 1.08 | 0.711 | 0.98 | 0.627 | 0.774 | 0.832 |
| AUUCACCUAGGUCAUCGUGAG [Fam2.2 aminoacylation ribozyme variant] | 0.847 | 0.534 | 0.701 | 0.854 | 0.697 | 0.588 |
| AUUCACCUCGGACAUCGGGUG [Fam2.2 aminoacylation ribozyme variant] | 4.74 | 5.08 | 3.09 | 4.76 | 6.78 | 40.1 |
| AAGUUUGCUAAAAGUCGCACG [Fam3.1 aminoacylation ribozyme variant] | 1.05 | 1.58 | 1.31 | 1.14 | 1.05 | 1.34 |
| CUACUUCACAUAAUCGGUCUG [Fam1A.1 aminoacylation ribozyme variant] | 0.969 | 0.721 | 0.963 | 0.795 | 0.812 | 0.899 |
| AAGUCUGCUAAUAGUCGCCAG [Fam3.1 aminoacylation ribozyme variant] | 1.32 | 3.43 | 1.1 | 1.34 | 1.04 | 1.8 |
| CUACUGCAAACAAUCGGACUG [Fam1A.1 aminoacylation ribozyme variant] | 1.02 | 0.763 | 0.64 | 0.654 | 0.932 | 0.547 |
| CCACACUUCAAGCAAUAGAUC [Fam1B.1 aminoacylation ribozyme variant] | 0.687 | 0.55 | 0.616 | 0.578 | 0.499 | 1.22 |
| CUAAUUCAAACAAUCGGUAUG [Fam1A.1 aminoacylation ribozyme variant] | 0.592 | 0.787 | 0.54 | 0.55 | 0.511 | 1.47 |
| AUUACCCUGGUCAUCGAAUGG [Fam2.1 aminoacylation ribozyme variant] | 0.828 | 0.541 | 0.74 | 0.774 | 0.689 | 0.745 |
| AAGUUUGCUAAUAGUGUCAAG [Fam3.1 aminoacylation ribozyme variant] | 0.783 | 0.941 | 0.832 | 0.746 | 0.665 | 1.03 |
| CUACUUCAUACAAUCUGUCUG [Fam1A.1 aminoacylation ribozyme variant] | 0.682 | 0.424 | 0.668 | 0.64 | 0.566 | 0.66 |
| AAGUUUGCUCAUAGUCACAAG [Fam3.1 aminoacylation ribozyme variant] | 0.95 | 1.07 | 1.02 | 0.978 | 0.777 | 1.62 |
| CCACACUUCAGGCAGUCGGUC [Fam1B.1 aminoacylation ribozyme variant] | 1.48 | 1.32 | 1.48 | 1.04 | 1.62 | 0.789 |
| AUUCACCUAGGUCACCUGGUG [Fam2.2 aminoacylation ribozyme variant] | 1.66 | 1.61 | 1.53 | 1.79 | 1.81 | 8.5 |
| CUACACUUCAAGCAAUCUGUC [Fam1B.1 aminoacylation ribozyme variant] | 0.433 | 0.283 | 0.322 | 0.382 | 0.273 | 0.801 |
| AUUCACCUGGGUCAUGGGGUG [Fam2.2 aminoacylation ribozyme variant] | 4.9 | 6.16 | 4.05 | 6.65 | 9.15 | 51.6 |
| CCACAAUACAAGCAAUCGGUC [Fam1B.1 aminoacylation ribozyme variant] | 1.07 | 0.568 | 1.07 | 0.822 | 0.881 | 0.969 |
| AGUCACCUAGGUCAUCGUGUG [Fam2.2 aminoacylation ribozyme variant] | 1.31 | 1.12 | 1.45 | 1.5 | 1.59 | 7.83 |
| AUUACCCUGAUCAUCGAGUAA [Fam2.1 aminoacylation ribozyme variant] | 1.32 | 0.877 | 1.25 | 1.33 | 1.02 | 1.09 |
| AAGUUUGCUGAUCGUCGCAAG [Fam3.1 aminoacylation ribozyme variant] | 0.838 | 1.31 | 0.788 | 0.781 | 0.714 | 0.662 |
| CUACUUCAAAAAAUAGGUCUG [Fam1A.1 aminoacylation ribozyme variant] | 0.882 | 0.665 | 0.881 | 0.691 | 0.639 | 0.878 |
| CUACUUCAAACGGUCGGUCUG [Fam1A.1 aminoacylation ribozyme variant] | 0.953 | 1.13 | 1.08 | 0.959 | 1.16 | 0.481 |
| CCACACUCCAAGGAAUCGGUC [Fam1B.1 aminoacylation ribozyme variant] | 1.31 | 1.34 | 1.35 | 1.32 | 1.08 | 1.46 |
| CUACAUCAAACAAUCUGUCUG [Fam1A.1 aminoacylation ribozyme variant] | 0.736 | 0.497 | 0.722 | 0.533 | 0.624 | 0.795 |
| AAGUUUGCUAAUAGUUGCUAG [Fam3.1 aminoacylation ribozyme variant] | 0.801 | 0.567 | 0.851 | 0.984 | 0.785 | 1.38 |

| Sequence | self-aminoacylation (biotinyl-Val-oxazolone) | self-aminoacylation (biotinyl-Trp-oxazolone) | self-aminoacylation (biotinyl-Ile-oxazolone) | self-aminoacylation (biotinyl-Met-oxazolone) | self-aminoacylation (biotinyl-Leu-oxazolone) | self-aminoacylation (biotinyl-Phe-oxazolone) |
| --- | --- | --- | --- | --- | --- | --- |
| AUUACCAUGGUCAUUGAGUGA [Fam2.1 aminoacylation ribozyme variant] | 5.51 | 13.8 | 5.76 | 11.8 | 12.1 | 63.6 |
| AAGUCUUCUAAUAGUCGCAAG [Fam3.1 aminoacylation ribozyme variant] | 1.52 | 2.07 | 2.06 | 1.56 | 1.83 | 3.19 |
| AAGUUAGCUUAUAGUCGCAAG [Fam3.1 aminoacylation ribozyme variant] | 1.56 | 1.9 | 1.8 | 1.43 | 1.48 | 2.88 |
| AUUCACUUAGGUCGUCGGGUG [Fam2.2 aminoacylation ribozyme variant] | 1.63 | 1.35 | 1.58 | 1.35 | 1.85 | 4.92 |
| AAGUUUGCUAAUAGACGCAGG [Fam3.1 aminoacylation ribozyme variant] | 0.724 | 0.602 | 0.73 | 0.822 | 0.683 | 1.16 |
| AAGUUUGCUAUUGGUCGCAAG [Fam3.1 aminoacylation ribozyme variant] | 0.76 | 0.66 | 0.787 | 0.756 | 1.05 | 1.46 |
| AAGUUUGACAAUAGUCGCAAG [Fam3.1 aminoacylation ribozyme variant] | 1.32 | 1.14 | 1.2 | 0.899 | 0.979 | 1.55 |
| AUUACCCUGGUCAUCGAUCGA [Fam2.1 aminoacylation ribozyme variant] | 0.79 | 0.857 | 1.25 | 0.842 | 0.95 | 0.529 |
| AAGUUUGCAAAUUGUCGCAAG [Fam3.1 aminoacylation ribozyme variant] | 1.19 | 1.53 | 1.26 | 1.47 | 1.57 | 0.968 |
| AUUACCCGGGUCAUUGAGUGA [Fam2.1 aminoacylation ribozyme variant] | 4.83 | 10.8 | 4.35 | 9.41 | 8.98 | 56.8 |
| AUUGACCUAGGUGAUCGGGUG [Fam2.2 aminoacylation ribozyme variant] | 3.78 | 6.18 | 4.21 | 4.22 | 5.78 | 25.9 |
| AUUCACCUUGGUCAUCGUGUG [Fam2.2 aminoacylation ribozyme variant] | 0.776 | 0.477 | 0.697 | 0.732 | 0.855 | 0.415 |
| AAGUUUGCUAAGAGUCGCAGG [Fam3.1 aminoacylation ribozyme variant] | 1.22 | 1.65 | 1.39 | 1.91 | 1.29 | 1.37 |
| AUUACCCUGGUCACCGACUGA [Fam2.1 aminoacylation ribozyme variant] | 1.05 | 0.519 | 0.913 | 0.651 | 1.13 | 0.426 |
| CCACUCUUCAAGCAAUCUGUC [Fam1B.1 aminoacylation ribozyme variant] | 0.581 | 0.29 | 0.437 | 0.363 | 0.354 | 0.664 |
| CCACACUUCAAGCAACAGGUC [Fam1B.1 aminoacylation ribozyme variant] | 0.87 | 0.576 | 0.669 | 0.626 | 0.667 | 0.739 |
| AAGUUUGCUAAUAAUCGCGAG [Fam3.1 aminoacylation ribozyme variant] | 0.808 | 1.47 | 0.983 | 0.863 | 0.744 | 1.24 |
| CUACUACAAACAAUCGGUUUG [Fam1A.1 aminoacylation ribozyme variant] | 0.606 | 0.473 | 0.625 | 0.535 | 0.518 | 0.865 |
| AAGUUUGCUAAUAUUCGCAAG [Fam3.1 aminoacylation ribozyme variant] | 0.861 | 0.933 | 0.945 | 0.89 | 0.844 | 1.01 |
| AUUACCCUCGUCGUCGAGUGA [Fam2.1 aminoacylation ribozyme variant] | 1.35 | 2.11 | 1.45 | 1.85 | 2.04 | 3.84 |
| GUUCACCUAGGUCAUCGGGUU [Fam2.2 aminoacylation ribozyme variant] | 6.82 | 9.2 | 7.61 | 13.5 | 17.9 | 51.7 |
| AAGUUUGCUAAUAGUUCCAAG [Fam3.1 aminoacylation ribozyme variant] | 1.53 | 1.19 | 1.47 | 1.48 | 1.28 | 1.72 |
| CCACACUUCUACCAAUCGGUC [Fam1B.1 aminoacylation ribozyme variant] | 0.807 | 0.537 | 0.748 | 0.532 | 0.697 | 0.893 |
| CUACUUCAAAAAUUCGGUCUG [Fam1A.1 aminoacylation ribozyme variant] | 1.45 | 1.12 | 1.44 | 1.37 | 1.65 | 3.5 |
| AUUCACCUGGUUCAUCGGGUG [Fam2.2 aminoacylation ribozyme variant] | 3.1 | 3.62 | 2.42 | 3.08 | 3.19 | 15.2 |
